From PubChem BioAssay AID270 (DTP/NCI, 2004)
The list is a part of this screen's results and no random one: it gathers tests that were run many times, whatever their T/C, doses with no T/C, and many T/C values between a quarter and a half above the control. Further doses and runs are listed elsewhere. T/C gives the treated animals as a percentage of the vehicle group. Schedule codes are those of the source, taken here to give the interval after Q, in days (D) or hours (H), and the number of doses after X. Some T/C values carry the count of animals alive at the toxicity check (mostly the fifth day); without a count, all were alive then. Some doses have a count of surviving animals in place of a T/C: the source files T/C as zero there, which appears to mark a toxic dose or a test without result, not a measured value. Some survivor counts are full or nearly so, which does not show that the dose was tolerated: the source hardly ever lists a survival T/C far under the control, and the zero likely stands for such cases as well. Counts of survivors are from the toxicity check (mostly the fifth day) where no day follows; animals may have died later. Some doses were run more than once; their values stand side by side, smallest first. Where survival is the endpoint, the PubChem record calls one and a half times the control and up active, and a quarter to a half above the control has no call in these data; cut-offs in other NCI protocols can differ.

Tested on: BDF1 mice, s.c. Lewis lung carcinoma, T/C %
Experiment: NCI In Vivo Anticancer Drug Screen. Data for tumor model Lewis Lung Carcinoma (subcutaneous) in B6D2F1 (BDF1) mice
Method: The antitumor activity of compounds was measured in mice bearing transplantable tumors. Survival or tumor size were measured and the results are expressed as the measurement made in the treated group (T) divided by the measurement made in the vehicle treated control group (C). The tumor model used in this assay is Lewis Lung Carcinoma (subcutaneous) in B6D2F1 (BDF1) mice

For `OC(CBr)C(O)C(O)C(O)CBr` (stereo unspecified), the survivor count (T/C endpoint: mean tumor weight (est.), dose: 600.0 mg/kg/injection, schedule: Q01DX009 (ip), vehicle: Klucel (hydroxypropylcellulose) (HPC), higher T/C = larger tumour) was 3 of 8, the T/C (T/C endpoint: mean tumor weight, dose: 50.0 mg/kg/injection, schedule: Q01DX011 (ip), vehicle: saline, evaluated on day 12, higher T/C = larger tumour) was 143 % of control and the T/C (T/C endpoint: median survival time, dose: 75.0 mg/kg/injection, schedule: Q01DX009 (ip), vehicle: Klucel (hydroxypropylcellulose) (HPC), higher T/C = longer survival) was 127 % of control. The survivor count (T/C endpoint: median survival time, dose: 300.0 mg/kg/injection, schedule: Q01DX009 (ip), vehicle: Klucel (hydroxypropylcellulose) (HPC), higher T/C = longer survival) was 6 of 8, the survivor count (T/C endpoint: median survival time, dose: 600.0 mg/kg/injection, schedule: Q01DX009 (ip), vehicle: Klucel (hydroxypropylcellulose) (HPC), higher T/C = longer survival) was 3 of 8 and the survivor count (T/C endpoint: median survival time, dose: 800.0 mg/kg/injection, schedule: Q01DX009 (ip), vehicle: saline, higher T/C = longer survival) was 9 of 10.
With `COC1C(OC(=O)/C=C/C=C/C=C/C=C/C(=O)O)CCC2(CO2)C1C1(C)OC1CC=C(C)C` (stereo unspecified) the survivor count (T/C endpoint: mean tumor weight, dose: 100.0 mg/kg/injection, schedule: Q01DX011 (ip), vehicle: saline, higher T/C = larger tumour) was 2 of 7, the survivor count (T/C endpoint: mean tumor weight, dose: 200.0 mg/kg/injection, schedule: Q01DX011 (ip), vehicle: saline, higher T/C = larger tumour) was 0 of 7 and the survivor count (T/C endpoint: mean tumor weight, dose: 400.0 mg/kg/injection, schedule: Q01DX011 (ip), vehicle: saline, higher T/C = larger tumour) was 0 of 7.
`C=C1c2[nH]c3ccccc3c2CN2CCC1/C(=C/C)C2` (stereo unspecified) was tested, and the T/C (T/C endpoint: mean tumor weight, dose: 0.25 mg/kg/injection, schedule: Q01DX011 (ip), vehicle: saline, evaluated on day 12, higher T/C = larger tumour) was 125 % of control.
`CCCCn1cnc2c(SC)nc(N)nc21` was tested, and the survivor count (T/C endpoint: mean tumor weight, dose: 480.0 mg/kg/injection, schedule: Q01DX011 (ip), vehicle: other, higher T/C = larger tumour) was 0 of 6 and the survivor count (T/C endpoint: mean tumor weight, dose: 720.0 mg/kg/injection, schedule: Q01DX011 (ip), vehicle: other, higher T/C = larger tumour) was 1 of 6.
`CCS(=O)(=O)Nc1cccc(Nc2c3cccc(C)c3nc3c(C)cccc23)c1OC` was tested, and the survivor count (T/C endpoint: median survival time, dose: 50.0 mg/kg/injection, schedule: Q01DX011 (ip), vehicle: saline with Tween-80, higher T/C = longer survival) was 10 of 10, the survivor count (T/C endpoint: median survival time, dose: 100.0 mg/kg/injection, schedule: Q01DX011 (ip), vehicle: saline with Tween-80, higher T/C = longer survival) was 10 of 10 and the survivor count (T/C endpoint: median tumor weight (est.), dose: 50.0 mg/kg/injection, schedule: Q01DX011 (ip), vehicle: saline with Tween-80, higher T/C = larger tumour) was 1 of 10.
With `CCC1=C(c2cc(Cl)c3ccccc3c2OCC(=O)O)OC(CC)(C(=O)c2cc(Cl)c3ccccc3c2OCC(=O)O)CC1` (stereo unspecified) the T/C (T/C endpoint: mean tumor weight, dose: 5.3 mg/kg/injection, schedule: Q01DX011 (ip), vehicle: carboxymethylcellulose (CMC), evaluated on day 12, higher T/C = larger tumour) was 125 % of control [5 of 6 alive], the survivor count (T/C endpoint: mean tumor weight, dose: 8.0 mg/kg/injection, schedule: Q01DX011 (ip), vehicle: carboxymethylcellulose (CMC), higher T/C = larger tumour) was 0 of 6 and 0 of 7 and the survivor count (T/C endpoint: mean tumor weight, dose: 13.0 mg/kg/injection, schedule: Q01DX011 (ip), vehicle: carboxymethylcellulose (CMC), higher T/C = larger tumour) was 0 of 7. For the same compound, the survivor count (T/C endpoint: mean tumor weight, dose: 20.0 mg/kg/injection, schedule: Q01DX011 (ip), vehicle: carboxymethylcellulose (CMC), higher T/C = larger tumour) was 0 of 7, the survivor count (T/C endpoint: mean tumor weight, dose: 30.0 mg/kg/injection, schedule: Q01DX011 (ip), vehicle: carboxymethylcellulose (CMC), higher T/C = larger tumour) was 0 of 7 and the survivor count (T/C endpoint: mean tumor weight, dose: 60.0 mg/kg/injection, schedule: Q01DX011 (ip), vehicle: carboxymethylcellulose (CMC), higher T/C = larger tumour) was 0 of 7. The survivor count (T/C endpoint: mean tumor weight, dose: 120.0 mg/kg/injection, schedule: Q01DX011 (ip), vehicle: carboxymethylcellulose (CMC), higher T/C = larger tumour) was 0 of 7 and the survivor count (T/C endpoint: mean tumor weight, dose: 240.0 mg/kg/injection, schedule: Q01DX011 (ip), vehicle: carboxymethylcellulose (CMC), higher T/C = larger tumour) was 0 of 7.
With `CN(C)Cc1c[nH]c2ccccc12` the survivor count (T/C endpoint: mean tumor weight, dose: 180.0 mg/kg/injection, schedule: Q01DX011 (ip), vehicle: carboxymethylcellulose (CMC), higher T/C = larger tumour) was 0 of 6 and the survivor count (T/C endpoint: mean tumor weight, dose: 360.0 mg/kg/injection, schedule: Q01DX011 (ip), vehicle: carboxymethylcellulose (CMC), higher T/C = larger tumour) was 0 of 6.
`CCCCCCCCCCCCSC(=N)N` was tested, and the survivor count (T/C endpoint: median survival time, dose: 50.0 mg/kg/injection, schedule: Q01DX009 (ip), vehicle: saline with Tween-80, higher T/C = longer survival) was 1 of 10.
For `CC[C@H](CC[C@@H](C)[C@H]1CC[C@H]2[C@@H]3CC=C4C[C@@H](O)CC[C@]4(C)[C@H]3CC[C@]12C)C(C)C`, the survivor count (T/C endpoint: mean tumor weight, dose: 200.0 mg/kg/injection, schedule: Q01DX011 (ip), vehicle: water, higher T/C = larger tumour) was 2 of 6 and the survivor count (T/C endpoint: mean tumor weight, dose: 300.0 mg/kg/injection, schedule: Q01DX011 (ip), vehicle: water, higher T/C = larger tumour) was 1 of 6.
With `CC(C)=CC1C(C(=O)OCc2ccc(C)cc2C)C1(C)C` (stereo unspecified) the survivor count (T/C endpoint: median survival time, dose: 100.0 mg/kg/injection, schedule: Q01DX009 (ip), vehicle: saline with Tween-80, higher T/C = longer survival) was 9 of 10, the survivor count (T/C endpoint: median survival time, dose: 200.0 mg/kg/injection, schedule: Q01DX009 (ip), vehicle: saline with Tween-80, higher T/C = longer survival) was 9 of 10 and the survivor count (T/C endpoint: median survival time, dose: 400.0 mg/kg/injection, schedule: Q01DX009 (ip), vehicle: saline with Tween-80, higher T/C = longer survival) was 9 of 10.
